Data source: PubChem BioAssay AID1508597 (Cure First, 2020)
Shown is an unselected part of the about 2,100 reagents, under one of the conditions tested. 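Calls flag viability under 80% in either arm, not effects specific to rucaparib; the reference for percent is not stated.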 A reagent listed more than once was tested more than once; the source does not tell the runs apart. Not given: the 100% reference.

- Screen: 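Knock-downs altering ovarian cancer cell survival with or without PARP inhibitor rucaparib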 (primary screen)
- Cell system: human ovarian carcinoma lines grown from tumours: OCI-P5x (papillary serous) and OCI-C5x (clear cell)
- Reagents: siRNA pool against human genes, 1.25 pmol siRNA per well
- Duration: 72 h or 96 h, depending on the cell culture
- Treatment: rucaparib 20 µM (about IC30) or vehicle, present until read-out
- Rucaparib or vehicle: Vehicle
- Cell line: OCI-P5x (serous)
- Measurement: 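ATP luminescence measured at 72 or 96 h according to the culture, then normalised and expressed as percent viability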
- Reading the numbers: viability, normalised: higher = more viable cells remaining
- Call rule: 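Active when normalised viability falls below 80 percent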
- Meaning of the calls: active = viability under 80%; inactive = viability 80% or more

SHPK, technical replicate 1 | viability, normalised (%) = 63.3; call = active
SHPK, technical replicate 2 | viability, normalised (%) = 73.7; call = active
SHPK, technical replicate 3 | viability, normalised (%) = 64.8; call = active
GRN, technical replicate 1 | viability, normalised (%) = 73.9; call = active
GRN, technical replicate 2 | viability, normalised (%) = 88.1; call = inactive
GRN, technical replicate 3 | viability, normalised (%) = 82.2; call = inactive
ADK, technical replicate 1 | viability, normalised (%) = 97; call = inactive
ADK, technical replicate 2 | viability, normalised (%) = 83; call = inactive
ADK, technical replicate 3 | viability, normalised (%) = 82.1; call = inactive
TYRO3, technical replicate 1 | viability, normalised (%) = 84.7; call = inactive
TYRO3, technical replicate 2 | viability, normalised (%) = 63.6; call = active
TYRO3, technical replicate 3 | viability, normalised (%) = 74.7; call = active
PRKDC, technical replicate 1 | viability, normalised (%) = 54.3; call = active
PRKDC, technical replicate 1 | viability, normalised (%) = 80.7; call = inactive
PRKDC, technical replicate 2 | viability, normalised (%) = 69.1; call = active
PRKDC, technical replicate 2 | viability, normalised (%) = 77.2; call = active
PRKDC, technical replicate 3 | viability, normalised (%) = 52.1; call = active
PRKDC, technical replicate 3 | viability, normalised (%) = 68.8; call = active
BRSK2, technical replicate 1 | viability, normalised (%) = 57; call = active
BRSK2, technical replicate 2 | viability, normalised (%) = 38.9; call = active
BRSK2, technical replicate 3 | viability, normalised (%) = 54.6; call = active

Reprinted from the listing, 4 entries:
PRKDC, technical replicate 3 | viability, normalised (%) = 68.8; call = active
BRSK2, technical replicate 1 | viability, normalised (%) = 57; call = active
BRSK2, technical replicate 2 | viability, normalised (%) = 38.9; call = active
BRSK2, technical replicate 3 | viability, normalised (%) = 54.6; call = active
